About 3,700 (7%) of roughly 53,000 sequences were called active.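 Rule for the calls: active = gene knockdowns whose robust z-score for IL-1 alpha signal is at least 2 or at most -2, so actives lie on both sides; inactive = the rest.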 This is one part of the list.

The experiment can be described thus: Components of the Cytosolic LPS Sensing Pathway: Gene Identification via Genome-wide siRNA Screen.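 Note: robust z of the log signal after scaling to non-targeting control siRNA wells of the plate.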 The settings on record: RAW264.7 macrophages, IL-1a HTRF, actives lie on both sides, screened at 100 nM (by protocol), cells primed 5 h with Pam3CSK4 first. An outline of the steps:
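RAW264.7 mouse macrophages reverse-transfected with single siRNAs (100 nM final) for 48h, primed with Pam3CSK4 for 5 hours, then transfected with LipidA for 24 hour. Supernatant IL-1a read by HTRF; values normalized to negative-control median, log-transformed robust z-scores.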
(In TR-FRET formats the signal depends on donor and acceptor labels being close together.)
As for GGAAAUGAUAUUUGCCUGATT against Eola1, the z-score is inactive: -1.48.

Take GCCAAGAAAGAAGGCGUAUTT against Cox6c: the z-score is inactive: -0.275.

In the case of CCUACUGACGGGAUGAAGUTT against Kyat3, the z-score is inactive: -0.251.

For the sequence CGUUCCAAAUUAGACUUGUTT against Ccdc32, the z-score was inactive: -0.175.

On to GGAAAAGGUUAAACUUUGATT against Cenpc1, for which the z-score was inactive: 0.165.

For the sequence GUAUUGUCAUCAUCAUUUCTT against Olfr910, the z-score was inactive: 0.115.

Consider GGAAUGACUUUUGAGACAGTT against Cyp1a1, for which the z-score was inactive: -0.732.

On to GCUGGCUUUGAUUUAUGGATT against Prkar1a, for which the z-score was active: 5.06.

As to GGAGAUCUUAGCAAAGUAUTT against Degs1, the z-score is active: 2.41.

As to GGUUCAGUAUAUCAUCUCUTT against Zfp335, the z-score was active: 2.69.

As to GGAGUUCAAUUCAUUGCCATT against Ptpre, the z-score was inactive: 0.63.

On to GGGAGACAGAGAAAUCCUGTT against Alkbh7, for which the z-score is inactive: -1.8.

Turning to GCCCUGUUGGACAUGAUCGTT against Txlnb, the z-score was inactive: -0.288.

With GCCAGUUGAAACCUAAACATT against Slc35d2, the z-score is inactive: -0.576.

Regarding GGUCAUUGGUUCCUCCCUUTT against C2cd4c, the z-score was active: 2.59.

Regarding GGAAAUAGUCAAAAGCUAUTT against Gpc5, the z-score was inactive: -0.414.

Regarding CCAGGUGACACCCAUCAUUTT against Ankrd13d, the z-score was inactive: 0.329.

With GGUUCUGCCAUGGAGGAAUTT against Svs5, the z-score is inactive: 0.0746.

On to GGGAAUGUGUUCAAAAACATT against Rpl19, for which the z-score was inactive: -0.349.

As to UCACAAUGGAUAUUUACCUTT against Olfr693, the z-score was inactive: -1.5.

For GGUGGACAAGUUCAAAGCCTT against Atg4d, the z-score is inactive: -1.56.

On to GCGAGCCAAGUUUGAACUUTT against Elovl6, for which the z-score was inactive: 1.42.

For GGCUCAAGAUAUCUAAGUATT against Olfr656, the z-score is inactive: -0.752.

On to GGCCUUCAGUCCAUUUUUCTT against Sms, for which the z-score was inactive: 1.06.

Regarding GGCAAAAACCCAGAGGACCTT against Mmut, the z-score is inactive: 0.979.

As for GGUACACAUUCACCAUAGCTT against Abcc8, the z-score is inactive: -1.84.

For the sequence GGCCUUGUAUGAAUUAUUUTT against Sqle, the z-score was active: 2.18.

On to CGAGGGCUACCUCAACAACTT against Syngr1, for which the z-score is inactive: 0.833.

As for GGAUCACGAAUGAAUCCGATT against Clec4a4, the z-score is inactive: -0.815.

With CGAAAGAGAUGAUGAUAAUTT against Arrdc3, the z-score was inactive: 0.641.

On to CCUUGAUGUCACAUGUAUUTT against Ankrd49, for which the z-score is inactive: -1.03.

As to GGAGUUUGAACAAGAAAUATT against Prss12, the z-score is inactive: 1.11.

On to GGCUUACCAACAGCAAACATT against Fzd1, for which the z-score is inactive: -0.215.

With GCUUUGAGAGGUGUUGAUATT against Gm6116, the z-score was inactive: -0.864.

In the case of CCCUUUAUACCUUUGUGUATT against Stat5a, the z-score was inactive: -0.0407.

Regarding GGAUUUUUAACCAAAGGAATT against Gnpnat1, the z-score was inactive: -0.628.

In the case of GGAGUAGCAUCAAUGUUUATT against Ebpl, the z-score was inactive: 0.275.

GGACUGUGCAACUUUGUGGTT against Timp3: the z-score was inactive: -0.634.

For the sequence CCAUUUGUAACAUGAUAGCTT against Ctss, the z-score is inactive: -0.157.

As to GGAAGUCAAGAAAGUGGCCTT against H1f0, the z-score was inactive: -0.294.

Turning to GGCAGAUAAAGAUGGAGCATT against Ndp, the z-score was active: 3.69.

Turning to CCGAUUCAUUGAGUCUGGGTT against Lfng, the z-score is inactive: 0.486.

GGUUUCAGGUGGACUUCCATT against Lgals12: the z-score was inactive: -1.84.

GCGAAGAAGAAGAUAGUAATT against Zranb2: the z-score was inactive: -0.654.

As to GGUUCGUGUAACCAAAGUCTT against Cavin4, the z-score is inactive: 0.0957.

Regarding GGUAGAAGACAUUCAGAUGTT against Nr4a2, the z-score is inactive: 1.77.

Regarding GGAACAGCUAAAGUUGGGATT against Kcnj9, the z-score is inactive: 0.5.

Turning to GGAACGAGACAGAAUGGUCTT against Rictor, the z-score is inactive: -0.836.

With GGCCCAGAUUGACCAGUAUTT against Rtn2, the z-score was inactive: -1.21.

Consider GCCACGUGAUAGUAAUAAATT against Psmd12, for which the z-score is inactive: 0.0999.

Take GAAGCCUAAUCCCUUAAUCTT against Oas1g: the z-score was inactive: 1.07.

Turning to GGGCCUUUAUGAGUCACACTT against H2-Aa, the z-score is inactive: -0.244.

For CCCACAGUUGCAAAUUGUGTT against Olfr804, the z-score was inactive: -1.67.

Consider GGAAACAUGGGUUUAUUUGTT against Bche, for which the z-score was inactive: -0.0931.

With GGUUAUUUCUGAAAUGUGCTT against Fbxl4, the z-score was inactive: -1.3.

In the case of GCCAAUAAAUCUCUUCCAATT against Tmem223, the z-score is inactive: 0.277.

In the case of CGAUCGAAAUCAAGUCGAUTT against Septin9, the z-score was inactive: 0.415.

In the case of GGGAGAUUAAUCAAGAACUTT against Ccnc, the z-score is inactive: 0.809.

For CGUGUUGAUAACUUUAACGTT against Abca9, the z-score was inactive: 0.556.

In the case of CCGGGUCAGGACAAUUCAUTT against Hsd17b1, the z-score is inactive: 1.87.

Regarding GGAGAACACAAAAUCAUGGTT against Xrn2, the z-score is inactive: -0.841.

With GGCAUCCUUGUUCACAUCCTT against Zfy1, the z-score is inactive: 0.77.

As to GGACUUUCGAGACAAGCUGTT against Barhl1, the z-score is inactive: -1.21.

On to GGCCUCACAAAAGAACACCTT against Nppb, for which the z-score was inactive: -1.12.

Regarding GCUCGGUUAAGAGCCCAUGTT against Pabpn1l, the z-score was active: -2.11.

As for CCAAUGGUGUAAUUAGAAATT against Olfr571, the z-score is inactive: 0.195.

On to GGAACAUCCAGUCAUUUUATT against Zfp14, for which the z-score was inactive: 0.233.

Take GGUGGACAACCAGUUCUACTT against Mapk10: the z-score is inactive: 1.27.

In the case of GGGUACAACUCUUUGAAGATT against Mnat1, the z-score is inactive: 0.535.

As for GCAACAGUGAAAUAGCACATT against Krit1, the z-score is inactive: 0.179.

Consider GGUCAAAUCUCGACAAAUCTT against Ptprm, for which the z-score was inactive: 0.0717.

As for GCAGAUUAACAUCUUCUUUTT against Dync1i2, the z-score is inactive: 1.45.

As for CCUACAGUAUGUGGCAGAUTT against Grb7, the z-score was inactive: -1.49.

Regarding GCGUAAUUCCAGCAGAUGUTT against Mepe, the z-score is inactive: 1.74.

With CGGACAUAGUCCAUCAUUCTT against Aig1, the z-score is inactive: 1.47.

Consider GGAAAAGCAGAGAAGAUAUTT against Atrip, for which the z-score is inactive: -1.7.

GCUAACAAGCUAGCAUUUATT against Ltv1: the z-score is inactive: -1.17.

On to GGAAAUGCCUAAUUUUCACTT against Snapc4, for which the z-score is inactive: 0.491.

As for GCCUCUAUAUCUUUCACUGTT against Olfr1209, the z-score was active: -2.16.

Turning to GGAAUUGCCAAUCAAUGAUTT against Gpr141b, the z-score was inactive: -0.405.

On to GGUGGUCAUUUAUUCAUGUTT against Cd55b, for which the z-score is inactive: -0.0607.

Turning to GCCCACUAUUAUCGAUAUGTT against Pcgf1, the z-score is inactive: 0.281.

Take GGUCAUAUCUCACCUAAGUTT against Nxph3: the z-score is inactive: -0.833.

GGACAAUUUUGACGAGAUGTT against Tubg1: the z-score is inactive: 0.238.

For GCUAGCCAAAAAAAUCCGGTT against Cachd1, the z-score is inactive: -0.826.

Regarding GGUGAAAUGCUUGACUAAATT against Ube2f, the z-score was inactive: 0.433.

As for GCAAUCAUUUCUUCAUCUATT against Olfr148, the z-score is inactive: 0.255.

As to CCCUCAUCAAGGGCAUAGATT against Gpd1l, the z-score was inactive: -1.11.

With GCCUUGACAGAGGUAUUGATT against Ovgp1, the z-score is inactive: -1.46.

In the case of GAAAAAUAUCCUGGCAGUGTT against Olfr824, the z-score is inactive: 0.656.

For GGACUUCGGCACUGCUUAUTT against Prmt9, the z-score is inactive: -0.837.

As for GGUUGUAGGAGAGGAAGCCTT against Apobr, the z-score was inactive: -0.572.

On to GCAGCCUUAUACUUCUCACTT against Gtdc1, for which the z-score was inactive: -0.702.

As for “GCAUGCUGAGGGACACAGUTT against 1810055G02Rik”, the z-score was inactive: -1.6.

Take CCUGGUACAAUCAAACUGCTT against Rnf222: the z-score is inactive: 0.516.

In the case of GCCCUAGCAAAAUAUGUUUTT against Rbm26, the z-score was inactive: 0.376.

As for GGUACUCCUCCAUUAUCACTT against Olfr631, the z-score is inactive: -0.185.

With GGUUCUCCUCCCAAAUUAGTT against Nptxr, the z-score is inactive: 0.709.

For GGAAUCCUUUAUGGUUUUCTT against Pald1, the z-score is inactive: 1.9.

On to CCUUUAUAACUGUGGUUGGTT against Vmn1r209, for which the z-score was inactive: 0.628.

Take CGUUCACUUUUGAAAACGUTT against Bysl: the z-score was inactive: 0.38.

On to GGCAUUUAUGUCGAACAAGTT against Mbtd1, for which the z-score is inactive: -0.616.

For the sequence GGCGACAGUUGUUUUUGUGTT against Nlrp4b, the z-score was inactive: -0.588.

With GCUUAUCCAGUGUAUUGUGTT against Amfr, the z-score was inactive: -0.0874.

On to GCGUAUGCUUUUGUGCACATT against Anapc7, for which the z-score was inactive: 0.831.

In the case of GGAGAAUUGCCUAUUUGAATT against Cdhr4, the z-score is inactive: -0.0667.

“GGUAACCCUUACAGAUAUGTT against 4921507P07Rik”: the z-score is inactive: 1.3.

Source of the values: PubChem BioAssay AID1508600 (Functional Genomics Laboratory (NCATS/FGL), 2020).
